In PubChem BioAssay AID2551 (National Center for Advancing Translational Sciences (NCATS), 2010):
In all, about 310,000 compounds went through this assay and about 17,000 (5.5%) were called active. Inconclusive means that the source gave no clear call. Such entries were picked first, then a sample of the others. The call rests on the fitted dose curve; in most records, active means well fitted inhibition curve with a large enough effect; inconclusive means small, poorly fitted or top-dose-only effect, or effect the other way; inactive means no such curve, though single readings can be large or run the other way. Potencies of inconclusive entries are doubtful fits and often do not repeat.

Chains of the proteins cited; added tags and fusions are not shown. Lines headed by an entry give the natural chain unless they say otherwise; changes in a name come on top.
UniProt P51450: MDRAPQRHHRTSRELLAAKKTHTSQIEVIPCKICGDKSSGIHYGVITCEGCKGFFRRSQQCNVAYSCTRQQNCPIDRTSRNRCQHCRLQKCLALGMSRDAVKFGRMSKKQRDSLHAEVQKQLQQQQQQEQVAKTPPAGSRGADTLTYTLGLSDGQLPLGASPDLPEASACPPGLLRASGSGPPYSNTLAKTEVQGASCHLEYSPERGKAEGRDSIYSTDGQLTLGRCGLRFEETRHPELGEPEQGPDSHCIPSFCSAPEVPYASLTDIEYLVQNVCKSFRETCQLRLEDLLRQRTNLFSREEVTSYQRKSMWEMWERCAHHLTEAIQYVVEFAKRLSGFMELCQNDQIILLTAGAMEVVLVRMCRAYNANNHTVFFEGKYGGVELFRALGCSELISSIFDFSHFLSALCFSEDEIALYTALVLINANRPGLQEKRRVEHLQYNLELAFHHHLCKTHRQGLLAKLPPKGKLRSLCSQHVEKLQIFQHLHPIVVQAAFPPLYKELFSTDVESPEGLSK

Target: Nuclear receptor ROR-gamma (Mus musculus) (UniProt P51450)
Test: qHTS for inhibitors of ROR gamma transcriptional activity; further: nearly all actives have a fitted effect of over 60% in size
Settings: Drosophila S2 Gal4-RORgamma UAS-luciferase reporter, 20 h; series mostly up to 53.6 µM
Procedure, shortened: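 Drosophila S2 cells stably expressing Gal4-DBD/mouse RORγ fusion under metallothionein promoter plus UAS-luciferase; compound 1 h, then 700 uM CuSO4 induction for 20 h at ambient temperature; inhibition read as reduced luminescence.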
Potency means the concentration at half of the fitted maximal effect.

| SMILES | Potency |
| --- | --- |
| Cc1ccc(C(=O)N2CC(C)SC2=Nc2cccc(S(=O)(=O)N(C)C)c2)cc1 (stereo not drawn) | inconclusive: 11.2 µM [activator, partial curve] |
| C/C(=N\N=C(/N)SC1CC(=O)N(c2ccc(Cl)cc2)C1=O)c1cccs1 (stereo not drawn) | active: 12.6 µM |
| O=C(NC(=S)Nc1cccc2c(O)cccc12)c1ccccc1[N+](=O)[O-] | inconclusive: 35.5 µM [inhibitor, single point] |
| CC(C)n1c(=S)[nH]c2cc(C(F)(F)F)ccc21 | active: 0.891 µM |
| Cc1cc(N2C(=O)c3ccc(C(=O)Nc4ccc(CC(=O)O)cc4)cc3C2=O)no1 | inactive |
| COc1cc(-c2cn(S(=O)(=O)c3cccc4nsnc34)nc2N)cc(OC)c1OC | inconclusive: 2.82 µM [activator, full curve, poor fit] |
| CC(C)(C)NC(=O)CN(C(=O)C(=O)Nc1ccc2c(c1)OCCO2)C1CC1 | inconclusive: 2.82 µM [activator, single point] |
| CNC(=O)c1cc(C(=O)c2ccc(Cl)cc2)c(Br)[nH]1 | inactive |
| COc1ccc(NC(=S)Nc2ccc(OC)cc2OC)c(OC)c1 | inconclusive: 35.5 µM [inhibitor, single point] |
| N#C/C(=C(/O)c1cccc(F)c1)c1nc2ccccc2s1 | inconclusive: 1.58 µM [activator, full curve] |
| CC12CCC(c3c(C(=O)Nc4nccs4)nn(-c4ccccc4)c31)C2(C)C (stereo not drawn) | inconclusive: 44.7 µM [inhibitor, partial curve, poor fit] |
| Cc1ccc(OCc2nnc(SCC(=O)CC(=O)Nc3ccccc3)o2)cc1 | active: 12.6 µM |
| CN(C)c1cc(NC(=O)CN2CCOCC2)c2ccccc2n1 | inactive |
| Cc1cc(C)nc(Nc2ncc(O)n2-c2ccc(C)c(Cl)c2)n1 | active: 11.2 µM |
| CNC(=S)N1CCn2cccc2C1c1ccc(F)cc1 (stereo not drawn) | inconclusive: 35.5 µM [inhibitor, single point] |
| Cc1cc(Br)ccc1OCC(=O)NNC(=O)c1cnccn1 | active: 8.91 µM |
| CCOc1cc(/C=C/c2cc(C(=O)O)c3ccccc3n2)ccc1O | inconclusive: 7.08 µM [inhibitor, partial curve, poor fit] |
| CC(C)(C)c1ccc(-c2nnc3sc(-c4ccccn4)nn23)cc1 | inconclusive: 10 µM [inhibitor, partial curve] |
| O=C(NNC(=S)Nc1ccccc1C(F)(F)F)C1CC1 | active: 20 µM |
| CCc1nc2ccccc2c(=O)n1NC(=O)c1c(O)c2ccccc2n(CC)c1=O | inconclusive: 25.1 µM [inhibitor, single point] |
| CCOc1ccccc1NC(=S)N1CCN(c2ccccc2F)CC1 | inconclusive: 22.4 µM [inhibitor, single point] |
| CC(=O)Nc1ccc(S(=O)(=O)NCCc2cc3ccc(C)c(C)c3[nH]c2=O)cc1 | inactive |
| Cc1[nH]n(C(N)=S)c(=O)c1N=Nc1ccc(S(=O)(=O)N2CCCCCC2)cc1 | active: 0.891 µM |
| O=C(Nc1ccc(Br)cc1)c1cccc(OC(=S)N2CCOCC2)c1 | inconclusive: 35.5 µM [activator, single point] |

| SMILES | Potency |
| --- | --- |
| N#CC(C#N)=Cc1cc2ccccc2nc1N1CCOCC1 | inactive |
| Fc1ccccc1CNCc1ccc2c(c1)OCO2 | inconclusive: 1.78 µM [inhibitor, partial curve, poor fit] |
| Cc1ccc(O)c(C(=O)c2cnn(C(=O)Cc3csc(C)n3)c2)c1 | inconclusive: 22.4 µM [inhibitor, single point] |
| c1ccc2oc(C3=NNC(=NC4CC4)SC3)cc2c1 | active: 3.55 µM |
| O=C(NCC1OCCc2ccccc21)c1ccc(NC(=O)c2cccc(Br)c2)cc1 (stereo not drawn) | inconclusive: 6.31 µM [activator, single point] |
| O=C(Nc1ccc(S(=O)(=O)NCc2cccnc2)cc1)c1ccccc1Cl | inconclusive: 5.62 µM [activator, single point] |
| COc1cccc(/C=N/NC(=O)CSc2ccccc2C)c1OC | inactive |
| COc1ccc(C(=O)NC(=S)NCCO)cc1Br | active: 0.794 µM |
| COC(=O)c1cccnc1NC(=S)NC1CCCCC1 | active: 0.631 µM |
| C=CCn1c(C)cc(C(=O)CSc2nc3ccccc3[nH]2)c1C | active: 10 µM |
| CCOC(=O)c1cnc2ccc(Cl)cc2c1NCCN(C)C | inconclusive: 35.5 µM [activator, single point] |
| COCCOC(=O)c1sc(=S)n(CCOC)c1N | inconclusive: 35.5 µM [inhibitor, single point] |
| CCCC12CN3CC(C)(CN(C1)C3c1ccc(OC(C)C)cc1)C2=O (stereo not drawn) | inconclusive: 3.16 µM [inhibitor, partial curve] |
| O=S(=O)(c1ccc(Br)s1)N1CCc2ccccc2C1 | inconclusive: 5.62 µM [activator, single point] |
| CC(C)(C)c1ccc(C(=O)NNC(=O)Cc2ccccc2)cc1 | inconclusive: 5.01 µM [inhibitor, partial curve, poor fit] |
| Cc1ccc(CCNC(=O)C23CN(Cc4ccccc4)CC2C(c2cccc([N+](=O)[O-])c2)=NO3)cc1 (stereo not drawn) | inconclusive: 6.31 µM [inhibitor, single point] |
| CC(C)N(Cc1nc(-c2ccccc2)no1)C(=O)c1ccc(Br)o1 | inactive |
| CC(=O)c1ccc(NC(=S)Nc2cccc(Cl)c2C)cc1 | active: 11.2 µM |
| COc1ccc(-c2nnn(CCC(=O)O)n2)cc1 | active: 2.24 µM |
| COc1ccc(NC(=O)c2[nH]ncc2[N+](=O)[O-])cc1 | inconclusive: 31.6 µM [inhibitor, single point] |
| CCNc1ncc2nc(-c3cn(C)c4ccccc34)c(=O)n(C)c2n1 | inactive |
| O=C(Nc1ccc(S(=O)(=O)N2CCCCC2)cc1)c1ccc(CN2CCOCC2)cc1 | inconclusive: 22.4 µM [activator, partial curve] |
| CC(=O)c1ccc2noc(-c3ccc(C)cc3)c2c1 | inconclusive: 10 µM [inhibitor, partial curve] |
| CC(C)(C)OC(=O)N1CCC[C@H]1c1nnc(SCc2ccc(Cl)cc2)o1 | inactive |

Quoted from the listing.
In Potency, CC(=O)c1ccc2noc(-c3ccc(C)cc3)c2c1 shows inconclusive: 10 µM [inhibitor, partial curve]
In Potency, O=S(=O)(c1ccc(Br)s1)N1CCc2ccccc2C1 shows inconclusive: 5.62 µM [activator, single point]
In Potency, O=C(Nc1ccc(S(=O)(=O)N2CCCCC2)cc1)c1ccc(CN2CCOCC2)cc1 shows inconclusive: 22.4 µM [activator, partial curve]
